In all, about 200,000 compounds went through this assay and about 25 (0.01%) were called active. The shares of active, inactive and inconclusive entries below differ from those in the screen. Calls come from the whole dose curve; as a rule, active = well fitted inhibition curve with a large enough effect in the signal ratio, with a control signal flat (not every such curve was filed as active); inconclusive = small, poorly fitted or top-dose-only effect, or effect the other way, or a change in a side signal; inactive = flat fitted curve, though single readings scatter; the % refers to the signal ratio. Where the call is inconclusive, the potency comes from a doubtful curve fit.
test: qHTS Assay for Modulators of Lamin A Splicing; details: HeLa LMNA splicing GFP/RFP minigene ratio, 48 h; ratio change, negative = inhibition: at 46.1 µM (top of the series) unless noted
How it was run: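 S3 HeLa cells stably expressing lamin A-EGFP splicing minigene plus DsRed2, 600 cells/well, 48 h compound exposure at 37C. Laser-scanning cytometry; analysed as GFP (500-530 nm)/RFP (575-640 nm) total intensity ratio; 0.5% DMSO vehicle.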
% is set by controls: 0 for no effect and ±100 for the full control effect; potency is the fitted concentration of half-maximal effect.

| Structure (SMILES) | ratio change, negative = inhibition | Potency |
| --- | --- | --- |
| CN1CCN(S(=O)(=O)c2cccc(C(=O)NC3CCCc4ccccc43)c2)CC1 (centres undefined) | inconclusive: 7.5% | – |
| O=C(Nc1ccc2oc(-c3cccc4ccccc34)nc2c1)c1ncn[nH]1 | inconclusive: -10.9% | – |
| COC(=O)C1=C(C(=O)OC)[C@@H]2N(C)c3ccc(OC)cc3[C@@]23C[C@@H](C(=O)OC)N(C(=O)c2cc(C)oc2C)C3=N1 | inconclusive: -4.72% [at 9.22 µM] | – |
| CSc1ccc(CCNc2ncnc3onc(C)c23)cc1 | inconclusive: -3.62% [at 46 µM] | – |
| O=C(NC1CCN(C(=O)N2c3ccccc3Sc3ccccc32)CC1)c1ccccc1F | inactive: -1.56% | – |
| CCN1C(=O)S/C(=C/c2ccc(Sc3nc4ccccc4[nH]3)o2)C1=O | inconclusive: -25.8% | – |
| O=C(NC1CC(=O)N(c2ccccc2)C1)C1CCCCC1 (centres undefined) | inactive: -11.4% [at 46 µM] | – |
| Fc1ccc(N2CCN(C(=S)NCC3CCCO3)CC2)cc1 (centres undefined) | inconclusive: 10.1% [at 46 µM] | – |
| COc1ccc(N/C=C\C(=O)c2ccc3c(c2)OCO3)cc1OC | inconclusive: 6.72% | – |
| CN(C(=O)COC(=O)c1ccccc1Nc1ccccc1)C1CCS(=O)(=O)C1 (centres undefined) | inconclusive: 12.2% | – |
| O=C1N=C(N2CCOCC2)S/C1=C/c1cccs1 | inactive: -1.2% | – |
| O=C(Nc1nnc(-c2cccs2)o1)c1ccco1 | inactive: -3.98% | – |
| O=C(Nc1ccc(F)cc1)N(Cc1cccs1)Cc1cc2cc3c(cc2[nH]c1=O)OCO3 | inconclusive: 3.31% | – |
| COc1ccc2c(c1)-c1nc(NC(=O)c3ccco3)sc1CC2 | inconclusive: 3.77% | – |
| COc1cccc(Nc2cc(N3CCOCC3)c3nonc3c2[N+](=O)[O-])c1 | inactive: 0.0436% | – |
| CC(=O)c1cc(C#N)c(SCC(=O)OC(C)(C)C)nc1C | inactive: 10.6% | – |
| CCc1nnc(NC(=O)CSc2nc(C3CCCCC3)nc3ccccc23)s1 | inactive: -5.64% | – |
| CCOC(=O)c1noc2ncnc(N(CCC(=O)OC)c3ccccc3)c12 | inconclusive: -15.4% [at 46 µM] | – |
| Cn1c(SCC(=O)NC2CCCC2)nc2cccnc21 | inconclusive: 33.8% | – |
| Cc1ccc2c(c1)nnn2C1CCN(S(=O)(=O)c2ccc(C(=O)N(C)C3CCCCC3)cc2)CC1 | inactive: 1.45% | – |
| COc1cccc(/C=N/n2c(=S)n(C)c3ccccc32)c1OC | inactive: 0.373% | – |

| Structure (SMILES) | ratio change, negative = inhibition | Potency |
| --- | --- | --- |
| Cc1cccc(C)c1-n1ncc(C(=O)Nc2ccc3c(c2)OCCO3)c1C1CCN(C(=O)OC(C)(C)C)CC1 | inconclusive: -7.53% [at 46 µM] | – |
| Cc1[nH]n(-c2ccccc2)c(=O)c1C(C[N+](=O)[O-])c1ccc(Cl)cc1 (centres undefined) | – | inconclusive: 11.2 µM [falling, single point] |
| Oc1cccc(CN2CCCCC2)c1 | inactive: -7.79% | – |
| N#CCSc1nc2c(cc1C#N)CCCC2 | inconclusive: 12.5% | – |
| CC1CN(CC(=O)Nc2cc(S(=O)(=O)N3CCCC3)ccc2Cl)CC(C)O1 (centres undefined) | inconclusive: -17.8% [at 46 µM] | – |
| COc1ccc(C)cc1Cn1c(S(C)(=O)=O)nc2ccccc21 | – | inconclusive: 20 µM [falling, single point] |
| CCOC(=O)/C(=C/c1ccccc1)NC(=O)c1ccco1 | inactive: -12.6% | – |
| COc1ccc(Nc2nc3ccccc3nc2C)cc1 | inconclusive: 6.79% | – |
| Cn1cc(Br)c(C(=O)n2cc(Br)cn2)n1 | inconclusive: 14.3% [at 46 µM] | – |
| N#CCCCSc1nnnn1-c1cccc(Cl)c1 | inactive: 5.26% | – |
| Cc1ccc(S(=O)(=O)NCCCCCC(=O)Nc2ccccn2)cc1 | inactive: -11.9% | – |
| Cn1c(=O)n(C)c2cc(NS(=O)(=O)c3ccccc3)c(NCc3ccccc3)cc21 | inconclusive: -15.5% [at 46 µM] | – |
| C[C@]12CCC(=O)C=C1CC[C@@H]1[C@@H]2[C@@H](O)C[C@@]2(C)[C@H]1CC[C@]2(O)C(=O)COC(=O)CCC(=O)O | inconclusive: -9% | – |
| CC(C)(C)NC[C@H](O)COc1nsnc1N1CCOCC1 | inconclusive: -9.29% | – |
| CC(=O)Nc1ccc(-c2csc(NC(=O)c3ccc(C)o3)n2)cc1 | inactive: 3.6% | – |
| Cn1c(=O)c2c(nc(N3CCCCC3)n2CCNC2=NCCC2)n(C)c1=O | – | inconclusive: 35.5 µM [cytotoxic, single point] |
| Cc1cccc(-n2ncc3c(N4CCOCC4)ncnc32)c1 | inconclusive: -1.89% | – |
| CCN=C1S/C(=C\c2ccc(O)c(OCC)c2)C(=O)N1CC | inactive: -2.16% | – |
| O=C(NCc1ccncc1)c1nc(-c2cccs2)no1 | inconclusive: -7.95% [at 46 µM] | – |
| O=c1cc(CCl)nc2scc(-c3ccccc3)n12 | inconclusive: 40.3% [at 46 µM] | – |
| COc1cc(OC)c(C(=O)NCCCN2CCOCC2)cc1OC | – | inconclusive: 35.5 µM [inhibitor, single point] |

| Structure (SMILES) | ratio change, negative = inhibition | Potency |
| --- | --- | --- |
| CCCNC(=O)C/C(C)=N/NC(=O)C(=O)Nc1ccccn1 | inconclusive: 3.49% [at 46 µM] | – |
| Nc1ncnc2nc(SCCOc3ccc(Cl)cc3)[nH]c12 | inconclusive: 0.362% | – |
| CCN(CC)S(=O)(=O)c1ccc(O)c(C(=O)OCC(=O)Nc2ccc(OC(F)(F)F)cc2)c1 | inactive: -36% [at 46 µM] | – |
| O=C(O)c1cccc(-n2cccc2/C=C2\SC(=O)N(Cc3ccccc3F)C2=O)c1 | inactive: 0.228% | – |
| Cc1noc(C)c1COc1ccc(C(=O)OCC(=O)Nc2c(C)n(C)n(-c3ccccc3)c2=O)cc1 | inconclusive: 3.7% [at 46 µM] | – |
| Cn1nnnc1SCCCNCc1cc(Br)ccc1OCc1ccccc1 | inconclusive: -3.31% [at 46 µM] | – |
| Fc1cccc(CN2CCN(Cc3nc(CCc4ccccc4)no3)CC2)c1 | inconclusive: -6.78% [at 46 µM] | – |
| CCOC(=O)C(=O)Nc1cc([N+](=O)[O-])ccc1C | inactive: -10.9% | – |
| Fc1ccc(C(OCCCc2cnc[nH]2)c2ccc(F)cc2)cc1 | – | inconclusive: 22.4 µM [inhibitor, single point] |
| C/C(Cn1nnc([N+](=O)[O-])n1)=N\NC(=O)c1ccccc1Cl | – | inconclusive: 11.2 µM [inhibitor, single point] |
| CC(=O)N/N=C(\C)CC(=O)Nc1cccc2c1CCCC2 | inactive: -6.57% [at 46 µM] | – |
| CC1=C(C(=O)OC2CCCC2)C(c2ccc(C)o2)C2=C(CC(c3cccs3)CC2=O)N1 (centres undefined) | inactive: -23.2% | – |
| O=C(N/C(=C\c1ccccc1)C(=O)N1CCCCCC1)c1ccccc1 | inconclusive: 16.7% [at 46 µM] | – |
| Cc1ccc(C)c(NC(=O)Cn2cnc3c(oc4ccccc43)c2=O)c1 | inconclusive: 23.5% [at 46 µM] | – |
| COc1ccc(CCNC(=O)Cn2cc(C(F)(F)F)cc(Cl)c2=O)cc1 | inconclusive: 12.6% | – |
| Cc1cc(C)c2[nH]c(=O)c(CN(Cc3ccc4c(c3)OCO4)Cc3nnnn3C3CCCC3)cc2c1 | inactive: -13.9% | – |
| CCOC(=O)c1sc2nc3n(c(=O)c2c1C)CCC(C)CC3 (centres undefined) | inactive: 7.78% | – |
| CCOC(=O)c1c(C)oc2nc(C)nc(Nc3cc(C)cc(C)c3)c12 | inconclusive: -0.513% [at 46 µM] | – |
| Cc1ccc(-n2ncc3c(N4CCCCC4)ncnc32)cc1Cl | inactive: -8.05% [at 46 µM] | – |
| O=C1CCC(c2ccc(-n3ccnc3)cc2)=NN1 | – | inconclusive: 2.82 µM [activator, partial curve] |
| CNc1cc(-c2ccccc2CN(C)C)ncn1 | inactive: 3.81% | – |

| Structure (SMILES) | ratio change, negative = inhibition | Potency |
| --- | --- | --- |
| Cc1ccc(-c2nc(N)sc2-c2ccc(C)cc2)cc1 | – | inconclusive: 35.5 µM [cytotoxic, single point] |
| Cc1ccc(NC(=S)NNC(=S)NCc2ccccc2)cc1 | inactive: 6.74% | – |
| CCN(CC)S(=O)(=O)c1nnc(NC(=O)COc2ccc(C)cc2)s1 | inactive: 25.8% [at 46 µM] | – |
| FC(F)(F)c1ccccc1-c1ccc2ncnc(NCCN3CCOCC3)c2c1 | inactive: -11.2% | – |
| COc1cc(C#CC#CCN2CCCCC2)ccc1O | inactive: -5.62% | – |
| COc1ccc(CN2CCCN(CC(=O)Nc3cc(C)ccc3C)S2(=O)=O)cc1 | inactive: -3.04% [at 46 µM] | – |
| COc1ccc(-c2nc3cnc(Nc4cccc(OC)c4)nc3n(C3CC3)c2=O)cc1 | inconclusive: 33.4% | – |
| O=C(O)CC[C@H](NC(=O)c1ccccc1C(=O)O)C(=O)O | inconclusive: 13.4% [at 46 µM] | – |
| CC(C)(C)OC(=O)N1CCC(c2c(C(=O)NCc3ccco3)cnn2-c2ccc(F)cc2F)CC1 | inconclusive: -30.2% [at 46 µM] | – |
| CC1=C(C(=O)c2ccccc2)C(c2ccc(OC(F)F)cc2)NC(=S)N1 (centres undefined) | inconclusive: -31.9% [at 46 µM] | – |
| Cc1ccc(N2C(=O)C3C4C=CC(CNC(=S)N5CCN(c6cccc(C)c6)C(C)C5)(O4)C3C2=O)cc1 (centres undefined) | – | inconclusive: 5.01 µM [falling, partial curve] |
| Cc1c(C(=O)c2ccccc2)c2ccccn2c1CCc1ccccn1 | inconclusive: -21.3% [at 46 µM] | – |
| CN(C(=O)CSc1nnc(-c2cccs2)o1)C1CCS(=O)(=O)C1 (centres undefined) | inconclusive: 2.81% [at 9.22 µM] | – |
| CCc1ccc(NC2CC(=O)N(CCc3ccc(OC)c(OC)c3)C2=O)cc1 (centres undefined) | inconclusive: -4.79% [at 46 µM] | – |
| COc1ccccc1NC(=O)C1=C(C)Nc2nnnn2C1c1cc(Br)ccc1OC (centres undefined) | inconclusive: -12.9% | – |
| Clc1ccccc1-c1nccc(NCc2ccccc2)n1 | inconclusive: -11.5% | – |
| CCN1CCN(Cc2nc3cc(NC(=O)c4cccc([N+](=O)[O-])c4)ccc3n2CC)CC1 | inconclusive: -18.3% [at 46 µM] | – |
| COc1ccc(NC(=O)CN2CCN(C3CCCCC3)C(=O)C2=O)cc1 | inactive: -13.3% [at 46 µM] | – |
| Brc1ccc(-c2nnc3n2-c2ccccc2CC3)cc1 | inconclusive: 19% | – |
| COc1ccccc1CCn1c(=O)c(-c2cccs2)nc2cncnc21 | inconclusive: -9.43% | – |
| O=C(c1ccc(Cl)cc1)N1CCC(c2nc(-c3cccs3)no2)CC1 | – | inconclusive: 35.5 µM [fluorescent, single point] |

Full records, looked up by structure:
O=C(O)c1cccc(-n2cccc2/C=C2\SC(=O)N(Cc3ccccc3F)C2=O)c1 as listed: ratio change, negative = inhibition: inactive: 0.228%
COc1ccc(CN2CCCN(CC(=O)Nc3cc(C)ccc3C)S2(=O)=O)cc1 as listed: ratio change, negative = inhibition: inactive: -3.04% [at 46 µM]
COc1ccc(C)cc1Cn1c(S(C)(=O)=O)nc2ccccc21 as listed: Potency: inconclusive: 20 µM [falling, single point]
Fc1ccc(C(OCCCc2cnc[nH]2)c2ccc(F)cc2)cc1 as listed: Potency: inconclusive: 22.4 µM [inhibitor, single point]

From PubChem BioAssay AID1487 (National Center for Advancing Translational Sciences (NCATS), 2009)
